Experiment [1] concerns the target EIF4E1-PTP (Trypanosoma brucei) (UniProt Q386T3). Nature of the experiment: affinity purification with mass spectrometry; procyclic forms with both 4EIP gene copies (+4EIP); EIF4E1-PTP or GFP-PTP (control) captured from lysate on IgG magnetic beads, 150 mM KCl, 4°C, four washes, release by TEV cleavage, quantitative LC-MS2; three preparations.
The target is the same in experiment [2]. Put plainly: affinity purification with mass spectrometry; procyclic forms lacking 4EIP (4EIP knockout, -4EIP); EIF4E1-PTP captured from lysate on IgG magnetic beads, 150 mM KCl, 4°C, four washes, release by TEV cleavage, quantitative LC-MS2; three preparations.

By UniProt entry, the sequences of proteins in these tests, tags left out. Where a name states a change or a piece, a line headed by the entry shows the natural chain unless it says otherwise.
UniProt Q386T3: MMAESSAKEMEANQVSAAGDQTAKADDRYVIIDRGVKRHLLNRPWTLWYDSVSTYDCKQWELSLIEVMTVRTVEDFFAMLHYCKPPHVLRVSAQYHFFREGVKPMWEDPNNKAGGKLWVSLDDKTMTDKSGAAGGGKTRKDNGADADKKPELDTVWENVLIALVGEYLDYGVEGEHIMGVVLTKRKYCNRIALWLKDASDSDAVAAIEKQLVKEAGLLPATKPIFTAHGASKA
UniProt Q38DR9: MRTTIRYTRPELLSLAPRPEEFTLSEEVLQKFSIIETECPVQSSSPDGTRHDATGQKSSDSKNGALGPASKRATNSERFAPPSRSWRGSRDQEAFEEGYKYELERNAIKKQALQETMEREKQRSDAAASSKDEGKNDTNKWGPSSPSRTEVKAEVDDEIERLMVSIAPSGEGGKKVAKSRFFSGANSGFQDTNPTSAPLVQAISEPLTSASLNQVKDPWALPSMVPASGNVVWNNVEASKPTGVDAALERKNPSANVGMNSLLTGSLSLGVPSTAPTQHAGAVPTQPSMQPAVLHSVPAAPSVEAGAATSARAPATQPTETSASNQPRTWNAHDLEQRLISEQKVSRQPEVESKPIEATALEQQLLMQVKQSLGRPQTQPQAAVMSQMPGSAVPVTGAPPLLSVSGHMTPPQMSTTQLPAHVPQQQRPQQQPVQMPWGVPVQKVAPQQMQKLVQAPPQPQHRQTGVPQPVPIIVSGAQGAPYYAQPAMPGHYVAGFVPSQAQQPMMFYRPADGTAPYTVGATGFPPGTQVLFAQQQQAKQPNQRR

No constants are given. Whether binding was seen depends on the method and setting. Binding seen in cells or lysates may run through a third protein. These calls come from enrichment with a bait or labelling near it, and not all partners need be listed. For part of these data: A no says only that the protein was not detected with the bait.

The text below walks through data of paper PMC8608314.

Take “4E-interacting protein 4EIP (from UniProt Q38DR9)”: the binding result in experiment [1] is given as “binds”.

B1: ERF1 eukaryotic peptide chain release factor subunit (protein, UniProt Q9NAX8 1-452)
chain: MTDHELSESEKAIERYKVKKLIQMLESARGMGTSVISIYMTPKEQISGMVTKLNNEYGTASNIKSHTNKLSVQSAITASLGRLKQYNRLPPNGLLLYCGTVLTAENKEKKLTLDIEPFKPVSRSLYLCDNKFHTEELHRMLESDEKFGFIVVDGSGTTYATLCGSVKEKLSSFTVELPKKHGRGGQSKNRFARIRMERRHNYLRKVAEGATQLFITNDRPNIVGLVLAGSAEFKEVLYQSDLFDPRLKAIVVKVVDVAHPGDVGLNQAIDLAADALSGVKLVQEKKLLQGFFDQIACDTQLYCFGVQDTLKCLEAGAVETLIVYEDLNIYRYTVVKNRGADDEETFVHVMSEEEAKRSNIHMQESGKTRNEIEQEDFVDWLATNYRKFGCALELITNRSQEGTQFVRGFGGIGGVLRYKLDIIALRDVEKKEDDEERIAANNEEFDFDDDFM
With B1, the results for the binding entry in experiment [1] and in experiment [2] were “binds” and “no binding (only in procyclic forms lacking 4EIP)”, respectively.
